Assay results taken from paper PMC3213103.
These are yes or no findings as the source states them, for the method shown. Binding seen in cells or lysates may run through a third protein. For some of these results: Binding can be weak; no strength is given. For some of these results: Where a sequence is shown, tags or fusion partners need not be part of it.

Experiments:
ULBP1 = biological target: T1, ULBP1 (UniProt Q9BZM6); experiment: co-IP; 35S pulse-chase labelled U373 cells expressing ULBP1 and U21; Triton X-100 lysates (1% Triton X-100, 10 mM Tris-HCl pH 7.4, 150 mM NaCl); U21 or ULBP1 recovered, SDS-PAGE of the labelled proteins; with or without leupeptin and folimycin
T1 sequence: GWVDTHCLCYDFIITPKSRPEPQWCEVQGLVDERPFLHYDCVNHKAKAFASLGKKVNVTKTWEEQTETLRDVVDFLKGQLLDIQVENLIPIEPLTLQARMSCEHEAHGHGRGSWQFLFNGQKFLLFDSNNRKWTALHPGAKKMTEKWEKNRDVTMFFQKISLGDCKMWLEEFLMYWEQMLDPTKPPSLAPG

[1] = biological target: human herpesvirus-7 (HHV-7) U21 gene product (human herpesvirus-7 (HHV-7)); experiment: co-IP
[2] = biological target: human herpesvirus-7 (HHV-7) U21 gene product (human herpesvirus-7 (HHV-7)); experiment: co-IP; 35S pulse-chase labelled U373 cells expressing ULBP1 and U21; Triton X-100 lysates (1% Triton X-100, 10 mM Tris-HCl pH 7.4, 150 mM NaCl); U21 or ULBP1 recovered, SDS-PAGE of the labelled proteins; with or without leupeptin and folimycin

“human herpesvirus-7 (HHV-7) U21 gene product” was tested, and the binding (ULBP1) was “no binding (only in Triton X-100 lysates)”.

B1: ULBP1 (protein, UniProt Q9BZM6 26-216)
chain: GWVDTHCLCYDFIITPKSRPEPQWCEVQGLVDERPFLHYDCVNHKAKAFASLGKKVNVTKTWEEQTETLRDVVDFLKGQLLDIQVENLIPIEPLTLQARMSCEHEAHGHGRGSWQFLFNGQKFLLFDSNNRKWTALHPGAKKMTEKWEKNRDVTMFFQKISLGDCKMWLEEFLMYWEQMLDPTKPPSLAPG
In the case of B1, the binding [1] is reported as “binds” and the binding [2] is reported as “no binding (only in Triton X-100 lysates)”.

B2: HA-tagged ULBP1 (protein, UniProt Q9BZM6 26-216)
chain: GWVDTHCLCYDFIITPKSRPEPQWCEVQGLVDERPFLHYDCVNHKAKAFASLGKKVNVTKTWEEQTETLRDVVDFLKGQLLDIQVENLIPIEPLTLQARMSCEHEAHGHGRGSWQFLFNGQKFLLFDSNNRKWTALHPGAKKMTEKWEKNRDVTMFFQKISLGDCKMWLEEFLMYWEQMLDPTKPPSLAPG
For B2, the binding [1] was “binds”.
